Among the data in the supplement of paper PMC10735217 are TEAD-luciferase reporter activity values, retold here.

Each structure is given as a SMILES string. Structures can show the parent of a compound that is named as a salt. The list shows a part of the results. Single values are uncertain here, since repeats match poorly.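 The human kidney-derived cells carry a stably integrated construct of eight TEAD-binding elements driving luciferase, read by luminescence in a drug-repurposing library screen. A compound counts as a hit when its signal is more than five robust Z scores above the plate mean.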

The assay has as its system HEK293A TEAD-LUC reporter. Put plainly: TEAD-luciferase reporter activity (YAP activation), robust Z score vs plate; higher = stronger YAP/TEAD activation. To be noted: 24 h. Background: A reporter such as luciferase makes a cellular process visible.

With `O=S1(=O)N[C@H]2CCCN2c2ccccc21`, the TEAD-luciferase reporter activity by setting is: (compound concentration: 200 nM) inactive: -0.954; (compound concentration: 2 uM) inactive: 1.47; (compound concentration: 10 uM) inactive: 1.45.

Regarding `O=C1NCCNC1c1cccs1` (stereo not given), the TEAD-luciferase reporter activity by setting is: (compound concentration: 200 nM) inactive: -0.0216; (compound concentration: 2 uM) inactive: -1.44; (compound concentration: 10 uM) inactive: 0.0315.

For `CCN(C/C=C/C#CC(C)(C)C)Cc1cccc(OCc2cc(-c3ccsc3)cs2)c1`, the TEAD-luciferase reporter activity (compound concentration: 200 nM) was inactive: 0.813, the TEAD-luciferase reporter activity (compound concentration: 2 uM) is inactive: 1.19 and the TEAD-luciferase reporter activity (compound concentration: 10 uM) is inactive: -0.433.

For the compound `Cc1cccc(C2(CN)C3CC4CC(C3)CC2C4)c1` (stereo not given), the TEAD-luciferase reporter activity by setting is: (compound concentration: 200 nM) inactive: -1.47; (compound concentration: 2 uM) inactive: 3.59; (compound concentration: 10 uM) inactive: 0.991.

For `CCCCCCCCCCCCCCCC(=O)Nc1ccn([C@@H]2O[C@H](CO)[C@@H](O)[C@@H]2C#N)c(=O)n1` [Sapacitabine], the TEAD-luciferase reporter activity is inactive: 0.156 (compound concentration: 200 nM), inactive: -0.439 (compound concentration: 2 uM) and inactive: 2.52 (compound concentration: 10 uM).

Take `CC[C@H](CN1CCCC1)C(=O)c1cc(-c2ccccc2)no1`: the TEAD-luciferase reporter activity (compound concentration: 200 nM) was inactive: -0.169, the TEAD-luciferase reporter activity (compound concentration: 2 uM) is inactive: -0.496 and the TEAD-luciferase reporter activity (compound concentration: 10 uM) is inactive: 2.61.

Regarding `COc1ccc(OC2CN(Cc3ccc(F)cc3)C2)cc1`, the TEAD-luciferase reporter activity was inactive: 0.436 (compound concentration: 200 nM) and inactive: -0.142 (compound concentration: 10 uM).

In the case of `CC(C)(C)C(=O)OCOC(=O)[C@@H]1N2C(=O)[C@@H](/N=C/N3CCCCCC3)[C@H]2SC1(C)C` [Pivmecillinam hydrochloride], the TEAD-luciferase reporter activity by setting is: (compound concentration: 200 nM) inactive: 0.168; (compound concentration: 2 uM) inactive: 0.49; (compound concentration: 10 uM) inactive: 3.21.

Consider `CN[C@H](C(=O)N[C@H](C(=O)N(C)[C@H](/C=C(\C)C(=O)O)C(C)C)C(C)(C)C)C(C)(C)c1ccccc1` [taltobulin], for which the TEAD-luciferase reporter activity runs as follows: (compound concentration: 200 nM) inactive: -0.916; (compound concentration: 2 uM) active: 5.51; (compound concentration: 10 uM) active: 8.42.

As to `CO/N=C/C1=CCCN(C(=O)Oc2ccc(Cl)cc2)C1`, the TEAD-luciferase reporter activity runs as follows: (compound concentration: 200 nM) inactive: -1.25; (compound concentration: 2 uM) inactive: -2; (compound concentration: 10 uM) inactive: 0.162.

On to `CCOC(=O)c1ccc2c(c1)NCc1cccc(OC)c1O2`, for which the TEAD-luciferase reporter activity is inactive: 1.06 (compound concentration: 200 nM), inactive: -0.125 (compound concentration: 2 uM) and inactive: 1.78 (compound concentration: 10 uM).

On to `CCC(C)NS(=O)(=O)CCN1C(=O)c2ccccc2C1=O` (stereo not given), for which the TEAD-luciferase reporter activity by setting is: (compound concentration: 200 nM) inactive: 4.59; (compound concentration: 2 uM) inactive: -2.11; (compound concentration: 10 uM) inactive: -0.419.

For `COc1cccc(-c2nc(CO[C@H]3CCC[C@@H](OCc4cccc(C)c4C(=O)O)C3)c(C)o2)c1`, the TEAD-luciferase reporter activity runs as follows: (compound concentration: 200 nM) inactive: -0.862; (compound concentration: 2 uM) inactive: 0.636; (compound concentration: 10 uM) inactive: 1.59.

For the compound `CCCCC1(c2ccc3[nH]ccc3c2)CCNC1` (stereo not given), the TEAD-luciferase reporter activity runs as follows: (compound concentration: 200 nM) inactive: -1.31; (compound concentration: 2 uM) inactive: -0.913; (compound concentration: 10 uM) inactive: 1.84.

Turning to `COc1ccc2c(c1)c(CC(=O)O)c(C)n2C(=O)c1ccc(Cl)cc1` [Indomethacin], the TEAD-luciferase reporter activity is inactive: -1.39 (compound concentration: 200 nM) and inactive: -0.059 (compound concentration: 10 uM).

Regarding `COc1ccc2c(c1)c(CC(=O)O)c(C)n2C(=O)c1ccc(Cl)cc1` [indometacin (IV)], where the note is “compound concentration: 2 uM”, the TEAD-luciferase reporter activity is inactive: -1.51.

As to `COc1cc2ncnc(Nc3ccc(O)cc3)c2cc1OC`, the TEAD-luciferase reporter activity was inactive: -0.373 (compound concentration: 200 nM), inactive: -1.58 (compound concentration: 2 uM) and active: 8.53 (compound concentration: 10 uM).

For the compound `O=C(Cc1ccccc1)Nc1ccc2cnn(CCN3CCCC3)c2c1`, the TEAD-luciferase reporter activity was inactive: 3.09 (compound concentration: 200 nM), inactive: -1.84 (compound concentration: 2 uM) and inactive: -0.005 (compound concentration: 10 uM).

Take `CC(=O)CCCCN1C(=O)C2C(N=CN2C)N(C)C1=O` (stereo not given): the TEAD-luciferase reporter activity is inactive: 1.21 (compound concentration: 200 nM), inactive: -0.238 (compound concentration: 2 uM) and inactive: -0.953 (compound concentration: 10 uM).

Regarding `COc1ccc([C@@H]2c3occc3C(=O)[C@@H]3COC(=O)[C@@H]23)cc1OC`, the TEAD-luciferase reporter activity by setting is: (compound concentration: 200 nM) inactive: -0.955; (compound concentration: 10 uM) inactive: -0.0571.

Take `COc1cc2c(cc1CN[C@H]1CCCN[C@H]1c1ccccc1)C(C)(C(F)(F)F)OCC2` (stereo not given in full): the TEAD-luciferase reporter activity is, setting by setting: (compound concentration: 200 nM) inactive: -0.24; (compound concentration: 2 uM) inactive: -0.613; (compound concentration: 10 uM) inactive: 3.2.

Take `COc1ccccc1N1CCN(CCN(C(=O)C2CCCCC2)c2ccccn2)CC1`: the TEAD-luciferase reporter activity (compound concentration: 200 nM) was inactive: -0.377, the TEAD-luciferase reporter activity (compound concentration: 2 uM) was inactive: 0.26 and the TEAD-luciferase reporter activity (compound concentration: 10 uM) was inactive: -2.05.

On to `CN1C(=O)c2ccccc2CC12CCCN(C(=O)c1ccc(Cl)cc1)C2` (stereo not given), for which the TEAD-luciferase reporter activity was inactive: -1.41 (compound concentration: 200 nM) and inactive: 0.562 (compound concentration: 10 uM).

Regarding `C#C[C@]1(OC(C)=O)CC[C@H]2[C@@H]3CCC4=CC(=O)CC[C@@H]4[C@H]3CC[C@@]21C` [Norethisterone acetate], the TEAD-luciferase reporter activity (compound concentration: 2 uM) is inactive: -1.49.

For `C#C[C@]1(OC(C)=O)CC[C@H]2[C@@H]3CCC4=CC(=O)CC[C@@H]4[C@H]3CC[C@@]21C`, the TEAD-luciferase reporter activity was inactive: 0.28 (compound concentration: 200 nM) and inactive: -0.314 (compound concentration: 10 uM).

With `Nc1ccc(SC[C@@H]2CO[C@](CCc3ccc(Cl)cc3)(Cn3ccnc3)O2)cc1` [Azalanstat], the TEAD-luciferase reporter activity (compound concentration: 200 nM) is inactive: 0.673, the TEAD-luciferase reporter activity (compound concentration: 2 uM) is inactive: 0.652 and the TEAD-luciferase reporter activity (compound concentration: 10 uM) is inactive: 3.19.

As to `OCCn1cc(-c2cnc3nnn(Cc4ccc5ncccc5c4)c3n2)cn1`, the TEAD-luciferase reporter activity is, setting by setting: (compound concentration: 200 nM) inactive: -1.6; (compound concentration: 2 uM) inactive: 0.865; (compound concentration: 10 uM) inactive: 3.63.

For the compound `CCCn1c(=O)c2nc(C3CCCC3)[nH]c2n(CCC)c1=O`, the TEAD-luciferase reporter activity (compound concentration: 200 nM) is inactive: -1.09, the TEAD-luciferase reporter activity (compound concentration: 2 uM) was inactive: -1.5 and the TEAD-luciferase reporter activity (compound concentration: 10 uM) was inactive: 2.39.
